Test results as given in PMC9525694.
These are yes or no findings as the source states them, for the method shown. For some assays here: Binding seen in cells or lysates may run through a third protein. Some entries that bind do so weakly or less than the wild type. For some assays here: Sequences can lack the tags named with a protein.

Key:
[1] = biological target: T1, voltage-dependent anion channel 2 (VDAC2) (human (endogenous in HeLa)), P45880; experiment: native gel or EMSA; BN-PAGE (6-16.5% gradient, 4 °C) of mitochondria from uninfected Bax-deficient HeLa cells without tBid, lysed in 1% digitonin; Western blot for Bak and VDAC; conditions: remark: other sources report otherwise
T1 chain: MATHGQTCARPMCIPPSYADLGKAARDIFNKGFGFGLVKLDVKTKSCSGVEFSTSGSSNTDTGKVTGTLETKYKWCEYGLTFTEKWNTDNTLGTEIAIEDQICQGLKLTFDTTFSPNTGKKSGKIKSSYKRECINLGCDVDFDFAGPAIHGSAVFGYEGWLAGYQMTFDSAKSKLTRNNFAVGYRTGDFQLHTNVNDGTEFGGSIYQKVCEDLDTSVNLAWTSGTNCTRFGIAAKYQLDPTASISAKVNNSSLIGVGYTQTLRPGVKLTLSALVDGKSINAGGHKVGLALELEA

[2] = biological target: T2, Bak (human (endogenous in HeLa)), Q16611; experiment: cross-linking; mitochondria isolated from HeLa cells (Bax-deficient, uninfected or Ctr-infected; GFP- or OmpA-expressing) treated with recombinant tBid; cysteine cross-linker BMH 0.5 mM, 30 min, room temperature; Western blot for Bak; conditions: remark: other sources report otherwise
T2 chain: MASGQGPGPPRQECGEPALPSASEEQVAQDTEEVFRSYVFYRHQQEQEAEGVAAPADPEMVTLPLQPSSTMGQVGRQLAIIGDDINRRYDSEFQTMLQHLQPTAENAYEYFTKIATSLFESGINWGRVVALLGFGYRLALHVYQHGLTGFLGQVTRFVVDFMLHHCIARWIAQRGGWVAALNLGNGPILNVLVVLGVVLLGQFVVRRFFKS

B1: Bak, Q16611 1-211 (natural protein)
chain: T2 chain
binding [1]: binds
binding [2]: binds
